Data: patent publication US20230355549A1, “METHOD OF PREVENTING KIDNEY INJURY DISRUPTION OF INTESTINAL LYMPHATICS” (Vanderbilt University, priority 2020, published 2023)

System: Sprague Dawley rats
Format: in vivo, rat
Conditions: PAN rats; not significant vs Cont
Procedure: Adult male Sprague Dawley rats (200-225 g, Charles River) were housed under a 12-h light/dark cycle with free access to normal rat chow and water. Kidney injury was induced by a single injection of puromycin […] (PAN) (125 mg/kg body weight, i.p.) while saline-injected rats served as controls (Cont). Eight days after injection, rats were sacrificed and blood, urine, and tissues were harvested. We also studied adult male (12 weeks old) Nphs1-hCD25 transgenic (NEP25, C57 bl/6 background) mice expressing human CD25 on podocytes can be selectively injured by injection of recombinant immunotoxin, anti-Tac (Fv)-PE38 (LMB2, 1 ng/g BW, i.v. generously provided by Dr. Ira Pastan) that results in proteinuria. […]
Albumin (Exocell), apoAI (Mybiosource), sphingosine-1 phosphate (S1P) (Mybiosource) and VEGF-C levels (Mybiosource) were measured by ELISA. Albuminuria was measured as urine albumin-to-creatinine ratio (ACR) (Nephrat II, Exocell) and QuantiChrom™ Creatinine Assay Kit (Bioassay Systems), respectively. Plasma and lymph total cholesterol and triglycerides were measured enzymatically (Cliniqa). […] Lipoprotein particle size was evaluated by NMR methodology (Liposcience). […] Total IsoLG-protein adduct by LC/MS was measured as IsoLG-lysine after complete proteolytic digestion of lymph samples.

## CN(C)c1ncnc2c1ncn2[C@@H]1O[C@H](CO)[C@@H](N)[C@H]1O [PAN, puromycin aminoglycoside]
  ileal apoAI protein level: 1.06 ± 0.06 µg/mg
